Data published in paper doi:10.1101/2021.07.13.452229.
No constants are given. Whether binding was seen depends on the method and setting. Some results given as binding are weak or reduced against the parent protein; the word gives no strength. For part of these data: Where a sequence is shown, tags or fusion partners need not be part of it. Values belong to the substance of their own block, whether it stands above or below them.

Protein sequences, listed by entry. Tags and fused reporters are not part of them. Residues count along the entry.
UniProt P07149: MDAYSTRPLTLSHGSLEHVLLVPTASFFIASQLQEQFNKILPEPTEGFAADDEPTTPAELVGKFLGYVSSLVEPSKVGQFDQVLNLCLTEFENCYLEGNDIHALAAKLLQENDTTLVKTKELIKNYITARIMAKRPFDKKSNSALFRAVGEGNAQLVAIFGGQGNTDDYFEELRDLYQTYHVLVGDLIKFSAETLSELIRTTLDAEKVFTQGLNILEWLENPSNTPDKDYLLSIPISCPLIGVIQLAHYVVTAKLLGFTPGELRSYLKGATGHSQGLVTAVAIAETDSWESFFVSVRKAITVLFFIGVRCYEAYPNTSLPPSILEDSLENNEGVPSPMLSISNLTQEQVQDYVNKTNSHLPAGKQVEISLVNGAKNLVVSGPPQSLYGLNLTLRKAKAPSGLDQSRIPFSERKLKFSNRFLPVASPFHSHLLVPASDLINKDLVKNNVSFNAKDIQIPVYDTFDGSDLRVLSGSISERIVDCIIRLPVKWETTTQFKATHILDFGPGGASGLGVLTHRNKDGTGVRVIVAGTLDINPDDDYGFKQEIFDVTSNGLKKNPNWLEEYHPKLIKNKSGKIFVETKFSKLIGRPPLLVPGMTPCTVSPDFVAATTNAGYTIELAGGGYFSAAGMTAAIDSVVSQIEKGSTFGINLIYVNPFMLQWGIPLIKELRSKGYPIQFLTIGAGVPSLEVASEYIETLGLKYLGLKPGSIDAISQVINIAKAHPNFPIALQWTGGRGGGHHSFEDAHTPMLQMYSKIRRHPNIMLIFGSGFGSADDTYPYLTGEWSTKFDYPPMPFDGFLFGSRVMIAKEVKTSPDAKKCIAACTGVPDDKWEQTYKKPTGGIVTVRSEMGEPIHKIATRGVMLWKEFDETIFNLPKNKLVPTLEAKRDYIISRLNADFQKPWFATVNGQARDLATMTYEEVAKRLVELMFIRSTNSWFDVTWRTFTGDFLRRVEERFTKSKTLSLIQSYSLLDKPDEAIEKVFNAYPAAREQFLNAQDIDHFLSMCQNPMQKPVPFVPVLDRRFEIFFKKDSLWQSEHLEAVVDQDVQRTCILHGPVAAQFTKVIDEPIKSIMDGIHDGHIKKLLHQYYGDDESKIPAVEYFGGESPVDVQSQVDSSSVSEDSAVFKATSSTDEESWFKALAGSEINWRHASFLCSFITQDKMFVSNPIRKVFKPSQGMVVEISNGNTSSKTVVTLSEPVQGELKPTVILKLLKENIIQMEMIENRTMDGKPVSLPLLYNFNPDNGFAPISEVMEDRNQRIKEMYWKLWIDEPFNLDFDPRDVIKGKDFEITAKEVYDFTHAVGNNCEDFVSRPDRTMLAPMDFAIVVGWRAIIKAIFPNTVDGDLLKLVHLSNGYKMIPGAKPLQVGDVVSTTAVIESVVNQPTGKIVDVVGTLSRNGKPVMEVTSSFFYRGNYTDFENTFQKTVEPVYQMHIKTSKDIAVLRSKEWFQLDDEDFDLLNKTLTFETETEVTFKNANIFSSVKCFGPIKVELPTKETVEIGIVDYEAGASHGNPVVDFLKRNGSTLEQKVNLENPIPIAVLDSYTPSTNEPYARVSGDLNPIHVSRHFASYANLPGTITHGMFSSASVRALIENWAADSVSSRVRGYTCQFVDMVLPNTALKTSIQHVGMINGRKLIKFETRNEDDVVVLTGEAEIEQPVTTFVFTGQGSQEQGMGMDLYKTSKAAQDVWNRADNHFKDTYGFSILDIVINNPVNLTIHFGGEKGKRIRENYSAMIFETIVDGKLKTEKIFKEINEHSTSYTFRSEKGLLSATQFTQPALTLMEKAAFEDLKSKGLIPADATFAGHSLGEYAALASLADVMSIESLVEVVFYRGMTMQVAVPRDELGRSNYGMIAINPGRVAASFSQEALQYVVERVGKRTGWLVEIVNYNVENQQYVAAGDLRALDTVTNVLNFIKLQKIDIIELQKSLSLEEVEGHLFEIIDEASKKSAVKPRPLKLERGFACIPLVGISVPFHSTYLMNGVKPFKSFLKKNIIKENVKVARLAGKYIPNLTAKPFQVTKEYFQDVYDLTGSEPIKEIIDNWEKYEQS
UniProt P40064: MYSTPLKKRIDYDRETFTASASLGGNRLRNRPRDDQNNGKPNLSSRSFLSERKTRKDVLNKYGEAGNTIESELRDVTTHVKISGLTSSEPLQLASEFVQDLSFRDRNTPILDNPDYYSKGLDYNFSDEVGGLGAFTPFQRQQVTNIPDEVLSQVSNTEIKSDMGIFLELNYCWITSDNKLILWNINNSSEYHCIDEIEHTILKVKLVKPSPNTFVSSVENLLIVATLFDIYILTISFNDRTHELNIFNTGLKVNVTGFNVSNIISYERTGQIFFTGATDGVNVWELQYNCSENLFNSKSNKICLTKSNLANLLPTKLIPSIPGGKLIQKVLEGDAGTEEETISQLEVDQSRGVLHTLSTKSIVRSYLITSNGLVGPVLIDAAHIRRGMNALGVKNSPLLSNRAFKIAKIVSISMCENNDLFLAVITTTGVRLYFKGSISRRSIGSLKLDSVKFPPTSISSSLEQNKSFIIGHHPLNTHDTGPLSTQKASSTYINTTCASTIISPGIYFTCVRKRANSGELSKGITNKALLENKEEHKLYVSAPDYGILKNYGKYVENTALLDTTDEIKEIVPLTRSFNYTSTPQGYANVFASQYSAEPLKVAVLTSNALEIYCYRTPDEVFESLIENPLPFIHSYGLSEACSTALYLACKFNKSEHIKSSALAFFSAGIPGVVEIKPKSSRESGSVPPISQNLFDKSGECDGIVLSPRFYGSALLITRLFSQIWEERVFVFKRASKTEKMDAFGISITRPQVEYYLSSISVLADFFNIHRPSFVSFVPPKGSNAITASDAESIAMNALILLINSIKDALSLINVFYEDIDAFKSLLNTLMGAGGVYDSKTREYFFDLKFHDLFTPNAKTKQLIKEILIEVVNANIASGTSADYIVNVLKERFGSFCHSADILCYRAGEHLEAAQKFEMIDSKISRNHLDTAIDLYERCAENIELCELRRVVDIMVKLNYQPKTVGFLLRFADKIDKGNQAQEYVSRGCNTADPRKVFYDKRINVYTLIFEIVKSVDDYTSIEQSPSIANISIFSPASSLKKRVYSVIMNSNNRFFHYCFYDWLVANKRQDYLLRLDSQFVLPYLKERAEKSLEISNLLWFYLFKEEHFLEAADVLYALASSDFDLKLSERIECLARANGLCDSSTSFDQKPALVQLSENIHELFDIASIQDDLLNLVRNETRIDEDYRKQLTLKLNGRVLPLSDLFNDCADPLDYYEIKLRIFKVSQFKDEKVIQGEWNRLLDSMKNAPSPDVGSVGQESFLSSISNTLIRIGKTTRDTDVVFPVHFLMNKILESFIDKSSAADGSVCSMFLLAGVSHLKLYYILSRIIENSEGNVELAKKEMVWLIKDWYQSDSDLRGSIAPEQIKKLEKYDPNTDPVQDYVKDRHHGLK
UniProt P19097: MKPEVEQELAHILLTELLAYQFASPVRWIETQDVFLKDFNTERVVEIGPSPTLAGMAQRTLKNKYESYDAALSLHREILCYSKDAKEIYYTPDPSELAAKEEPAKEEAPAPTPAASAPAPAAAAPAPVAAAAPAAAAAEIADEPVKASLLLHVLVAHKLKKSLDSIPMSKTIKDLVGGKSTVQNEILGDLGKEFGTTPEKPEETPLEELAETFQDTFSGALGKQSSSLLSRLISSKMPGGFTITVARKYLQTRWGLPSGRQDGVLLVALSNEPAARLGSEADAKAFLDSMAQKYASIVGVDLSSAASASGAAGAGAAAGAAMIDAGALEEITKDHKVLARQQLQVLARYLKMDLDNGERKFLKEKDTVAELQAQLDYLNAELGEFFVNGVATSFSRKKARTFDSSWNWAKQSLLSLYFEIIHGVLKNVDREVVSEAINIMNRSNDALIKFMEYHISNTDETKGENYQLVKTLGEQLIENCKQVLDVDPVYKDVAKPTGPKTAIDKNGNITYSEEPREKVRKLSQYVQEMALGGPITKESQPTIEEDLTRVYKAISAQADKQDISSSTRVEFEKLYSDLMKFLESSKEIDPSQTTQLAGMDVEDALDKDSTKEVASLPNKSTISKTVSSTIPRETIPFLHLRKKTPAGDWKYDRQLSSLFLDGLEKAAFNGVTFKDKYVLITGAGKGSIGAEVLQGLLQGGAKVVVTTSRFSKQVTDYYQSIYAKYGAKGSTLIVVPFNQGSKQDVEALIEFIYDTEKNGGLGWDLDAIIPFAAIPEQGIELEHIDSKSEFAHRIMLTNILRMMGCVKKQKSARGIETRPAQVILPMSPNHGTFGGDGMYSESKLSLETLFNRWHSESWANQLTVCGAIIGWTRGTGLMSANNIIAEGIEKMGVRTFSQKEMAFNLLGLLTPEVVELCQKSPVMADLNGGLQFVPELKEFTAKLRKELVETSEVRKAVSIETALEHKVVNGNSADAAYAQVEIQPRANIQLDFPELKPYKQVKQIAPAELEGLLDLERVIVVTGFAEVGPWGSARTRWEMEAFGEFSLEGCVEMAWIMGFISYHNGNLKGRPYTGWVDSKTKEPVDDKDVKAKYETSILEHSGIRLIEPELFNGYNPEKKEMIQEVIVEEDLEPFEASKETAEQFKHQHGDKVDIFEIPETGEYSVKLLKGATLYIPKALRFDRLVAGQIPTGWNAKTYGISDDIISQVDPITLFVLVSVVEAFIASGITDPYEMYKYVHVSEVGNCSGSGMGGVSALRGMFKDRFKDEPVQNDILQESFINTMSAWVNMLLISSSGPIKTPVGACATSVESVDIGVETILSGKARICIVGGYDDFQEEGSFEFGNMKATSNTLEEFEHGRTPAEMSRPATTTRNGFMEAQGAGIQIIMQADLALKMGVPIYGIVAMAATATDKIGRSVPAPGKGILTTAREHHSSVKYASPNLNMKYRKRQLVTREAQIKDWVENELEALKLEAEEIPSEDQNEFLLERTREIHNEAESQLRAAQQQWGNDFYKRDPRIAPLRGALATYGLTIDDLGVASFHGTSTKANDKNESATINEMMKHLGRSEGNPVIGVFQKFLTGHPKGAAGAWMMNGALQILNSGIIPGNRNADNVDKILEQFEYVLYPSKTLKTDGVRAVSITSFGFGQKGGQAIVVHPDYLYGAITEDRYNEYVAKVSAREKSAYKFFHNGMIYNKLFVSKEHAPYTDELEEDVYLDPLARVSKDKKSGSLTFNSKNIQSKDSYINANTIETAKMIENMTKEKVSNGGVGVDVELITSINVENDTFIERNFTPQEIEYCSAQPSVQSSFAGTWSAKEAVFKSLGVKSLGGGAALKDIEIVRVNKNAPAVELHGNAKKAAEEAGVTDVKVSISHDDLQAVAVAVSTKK
UniProt P49687, residues 1-605: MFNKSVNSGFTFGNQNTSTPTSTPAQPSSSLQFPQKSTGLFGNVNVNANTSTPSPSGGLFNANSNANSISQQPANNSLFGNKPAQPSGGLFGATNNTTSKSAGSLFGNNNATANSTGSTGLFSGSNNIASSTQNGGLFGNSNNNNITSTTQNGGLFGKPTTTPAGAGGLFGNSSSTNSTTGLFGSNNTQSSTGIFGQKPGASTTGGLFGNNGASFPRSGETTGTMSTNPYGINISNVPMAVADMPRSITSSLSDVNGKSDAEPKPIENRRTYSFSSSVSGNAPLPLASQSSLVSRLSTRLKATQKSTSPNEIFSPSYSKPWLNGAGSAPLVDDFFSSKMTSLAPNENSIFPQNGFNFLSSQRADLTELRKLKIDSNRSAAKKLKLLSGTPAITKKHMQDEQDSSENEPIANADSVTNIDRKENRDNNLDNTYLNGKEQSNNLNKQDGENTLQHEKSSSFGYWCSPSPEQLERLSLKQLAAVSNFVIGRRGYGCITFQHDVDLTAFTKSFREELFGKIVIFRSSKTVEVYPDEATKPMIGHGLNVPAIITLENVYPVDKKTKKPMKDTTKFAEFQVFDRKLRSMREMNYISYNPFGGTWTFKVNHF

Tests used:
[1] = target: T1, Gle2, C-terminally Twin-StrepII tagged (S. cerevisiae) (UniProt P40066); assay: RIP-qPCR
T1 sequence: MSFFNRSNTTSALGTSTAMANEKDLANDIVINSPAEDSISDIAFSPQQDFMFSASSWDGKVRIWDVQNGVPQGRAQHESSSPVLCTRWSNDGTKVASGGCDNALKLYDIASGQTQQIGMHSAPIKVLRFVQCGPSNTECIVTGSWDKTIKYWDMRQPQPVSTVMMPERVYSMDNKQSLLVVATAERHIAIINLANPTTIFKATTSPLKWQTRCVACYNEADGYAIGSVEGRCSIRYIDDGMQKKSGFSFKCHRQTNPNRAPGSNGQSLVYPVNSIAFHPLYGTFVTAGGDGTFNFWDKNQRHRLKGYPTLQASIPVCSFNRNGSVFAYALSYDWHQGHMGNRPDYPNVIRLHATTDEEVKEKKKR

[2] = target: T2, Nup53, C-terminally Twin-StrepII tagged (S. cerevisiae) (UniProt Q03790); assay: RIP-qPCR
T2 sequence: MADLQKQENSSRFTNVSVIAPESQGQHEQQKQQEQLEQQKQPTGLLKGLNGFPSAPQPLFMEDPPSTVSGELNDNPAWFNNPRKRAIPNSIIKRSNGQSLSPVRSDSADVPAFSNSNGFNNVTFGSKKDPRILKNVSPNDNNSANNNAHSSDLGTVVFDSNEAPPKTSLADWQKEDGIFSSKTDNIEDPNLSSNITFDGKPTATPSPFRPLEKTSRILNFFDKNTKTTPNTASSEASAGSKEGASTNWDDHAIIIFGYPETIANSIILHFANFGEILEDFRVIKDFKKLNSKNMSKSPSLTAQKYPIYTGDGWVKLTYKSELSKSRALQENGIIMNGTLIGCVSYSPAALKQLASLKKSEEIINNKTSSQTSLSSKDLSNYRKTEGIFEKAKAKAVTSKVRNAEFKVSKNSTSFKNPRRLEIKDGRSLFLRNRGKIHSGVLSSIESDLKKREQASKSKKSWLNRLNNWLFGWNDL

[3] = target: Fas1, C-terminally Twin-StrepII tagged (S. cerevisiae) (UniProt P07149); assay: selective ribosome profiling
[4] = target: Fas1, C-terminally Twin-StrepII tagged (S. cerevisiae) (UniProt P07149); assay: RIP-qPCR
[5] = target: Nup116, C-terminally Twin-StrepII tagged (S. cerevisiae) (UniProt Q02630); assay: RIP-qPCR
[6] = target: Nup157, C-terminally Twin-StrepII tagged (S. cerevisiae) (UniProt P40064); assay: RIP-qPCR

binding [1]: binds
Substance: Nup116 (from UniProt Q02630 1-1113)

binding [2]: binds
Substance: Nup170 (from UniProt P38181 1-1502)

binding [3]: binds
binding [4]: binds
Substance: Fas2 (from UniProt P19097 1-1887)

binding [5]: binds
Substance: Nup82 (from UniProt P40368 1-713)

binding [6]: binds weakly
Substance: Nup145N (from UniProt P49687 1-605)
